# Data as given in PubChem BioAssay AID1508597 (Cure First, 2020).
# Aim: 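Genes whose silencing sensitises or protects ovarian cancer cells against rucaparib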 (primary screen)
# System: human ovarian carcinoma lines grown from tumours: OCI-P5x (papillary serous) and OCI-C5x (clear cell)
# Reagent: siRNA pool against human genes, 1.25 pmol siRNA per well
# Time to read-out: 72 h or 96 h, depending on the cell culture
# Treatment: rucaparib 20 µM (about IC30) or vehicle, present until read-out
# Measurement: 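Luminescent ATP-based viability assay read 72 or 96 h after transfection, depending on culture, given as normalised percent viability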
# Scale: viability, normalised: higher = more viable cells remaining
# Rule for the call: 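a well counts as a hit if its normalised viability is under 80 percent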
# Meaning of the calls: active = viability under 80%; inactive = viability 80% or more
# This is an unselected part of about 2,100 deposited reagents. 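Calls flag viability under 80% in either arm, not effects specific to rucaparib; the reference for percent is not stated.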 Entries without a mark were called inactive. The record does not give: the 100% reference.
gene knocked down,rucaparib or vehicle,cell line,technical replicate,"viability, normalised (%)"
SBK1 (SH3 domain binding kinase 1),Rucaparib,OCI-C5x (clear cell),1,45.3 (active)
SBK1 (SH3 domain binding kinase 1),Rucaparib,OCI-C5x (clear cell),2,57.5 (active)
SBK1 (SH3 domain binding kinase 1),Rucaparib,OCI-C5x (clear cell),3,63.2 (active)
SBK1 (SH3 domain binding kinase 1),Rucaparib,OCI-P5x (serous),1,108
SBK1 (SH3 domain binding kinase 1),Rucaparib,OCI-P5x (serous),2,114
SBK1 (SH3 domain binding kinase 1),Rucaparib,OCI-P5x (serous),3,123
SBK1 (SH3 domain binding kinase 1),Vehicle,OCI-C5x (clear cell),1,62.3 (active)
SBK1 (SH3 domain binding kinase 1),Vehicle,OCI-C5x (clear cell),2,78.1 (active)
SBK1 (SH3 domain binding kinase 1),Vehicle,OCI-C5x (clear cell),3,44.7 (active)
SBK1 (SH3 domain binding kinase 1),Vehicle,OCI-P5x (serous),1,76.4 (active)
SBK1 (SH3 domain binding kinase 1),Vehicle,OCI-P5x (serous),2,74.7 (active)
SBK1 (SH3 domain binding kinase 1),Vehicle,OCI-P5x (serous),3,80.4
AK1 (adenylate kinase 1),Rucaparib,OCI-C5x (clear cell),1,50 (active)
AK1 (adenylate kinase 1),Rucaparib,OCI-C5x (clear cell),2,77.5 (active)
AK1 (adenylate kinase 1),Rucaparib,OCI-C5x (clear cell),3,55.6 (active)
AK1 (adenylate kinase 1),Rucaparib,OCI-P5x (serous),1,114
AK1 (adenylate kinase 1),Rucaparib,OCI-P5x (serous),2,113
AK1 (adenylate kinase 1),Rucaparib,OCI-P5x (serous),3,129
AK1 (adenylate kinase 1),Vehicle,OCI-C5x (clear cell),1,46.2 (active)
AK1 (adenylate kinase 1),Vehicle,OCI-C5x (clear cell),2,57.2 (active)
AK1 (adenylate kinase 1),Vehicle,OCI-C5x (clear cell),3,53.3 (active)
AK1 (adenylate kinase 1),Vehicle,OCI-P5x (serous),1,107
AK1 (adenylate kinase 1),Vehicle,OCI-P5x (serous),2,93.6
AK1 (adenylate kinase 1),Vehicle,OCI-P5x (serous),3,101

As entered above.
Result of AK1 (adenylate kinase 1), rucaparib or vehicle Rucaparib, cell line OCI-C5x (clear cell), technical replicate 3 under “viability, normalised (%)”: 55.6 (active)
SBK1 (SH3 domain binding kinase 1), rucaparib or vehicle Rucaparib, cell line OCI-P5x (serous), technical replicate 1, viability, normalised (%) → 108
SBK1 (SH3 domain binding kinase 1), rucaparib or vehicle Vehicle, cell line OCI-C5x (clear cell), technical replicate 3, viability, normalised (%) = 44.7 (active)
AK1 (adenylate kinase 1), rucaparib or vehicle Vehicle, cell line OCI-P5x (serous), technical replicate 1, viability, normalised (%): 107

Further entries follow.
gene knocked down,rucaparib or vehicle,cell line,technical replicate,"viability, normalised (%)"
NDRG1 (N-myc downstream regulated 1),Rucaparib,OCI-C5x (clear cell),1,57 (active)
NDRG1 (N-myc downstream regulated 1),Rucaparib,OCI-C5x (clear cell),2,85.6
NDRG1 (N-myc downstream regulated 1),Rucaparib,OCI-C5x (clear cell),3,70 (active)
NDRG1 (N-myc downstream regulated 1),Rucaparib,OCI-P5x (serous),1,69.4 (active)
NDRG1 (N-myc downstream regulated 1),Rucaparib,OCI-P5x (serous),2,52.9 (active)
NDRG1 (N-myc downstream regulated 1),Rucaparib,OCI-P5x (serous),3,70 (active)
NDRG1 (N-myc downstream regulated 1),Vehicle,OCI-C5x (clear cell),1,64.2 (active)
NDRG1 (N-myc downstream regulated 1),Vehicle,OCI-C5x (clear cell),2,58.6 (active)
NDRG1 (N-myc downstream regulated 1),Vehicle,OCI-C5x (clear cell),3,63.5 (active)
NDRG1 (N-myc downstream regulated 1),Vehicle,OCI-P5x (serous),1,64.7 (active)
NDRG1 (N-myc downstream regulated 1),Vehicle,OCI-P5x (serous),2,45.3 (active)
NDRG1 (N-myc downstream regulated 1),Vehicle,OCI-P5x (serous),3,56.4 (active)
FKBP1A (FKBP prolyl isomerase 1A),Rucaparib,OCI-C5x (clear cell),1,62.4 (active)
FKBP1A (FKBP prolyl isomerase 1A),Rucaparib,OCI-C5x (clear cell),2,39.1 (active)
FKBP1A (FKBP prolyl isomerase 1A),Rucaparib,OCI-C5x (clear cell),3,50.1 (active)
FKBP1A (FKBP prolyl isomerase 1A),Rucaparib,OCI-P5x (serous),1,77.9 (active)
FKBP1A (FKBP prolyl isomerase 1A),Rucaparib,OCI-P5x (serous),2,63 (active)
FKBP1A (FKBP prolyl isomerase 1A),Rucaparib,OCI-P5x (serous),3,68 (active)
FKBP1A (FKBP prolyl isomerase 1A),Vehicle,OCI-C5x (clear cell),1,52.7 (active)
FKBP1A (FKBP prolyl isomerase 1A),Vehicle,OCI-C5x (clear cell),2,66.2 (active)
FKBP1A (FKBP prolyl isomerase 1A),Vehicle,OCI-C5x (clear cell),3,58.8 (active)
FKBP1A (FKBP prolyl isomerase 1A),Vehicle,OCI-P5x (serous),1,76 (active)
FKBP1A (FKBP prolyl isomerase 1A),Vehicle,OCI-P5x (serous),2,70.5 (active)
FKBP1A (FKBP prolyl isomerase 1A),Vehicle,OCI-P5x (serous),3,96.9
"SUPT3H (SPT3 homolog, SAGA and STAGA complex component)",Rucaparib,OCI-C5x (clear cell),1,50.5 (active)
"SUPT3H (SPT3 homolog, SAGA and STAGA complex component)",Rucaparib,OCI-C5x (clear cell),2,43.2 (active)
"SUPT3H (SPT3 homolog, SAGA and STAGA complex component)",Rucaparib,OCI-C5x (clear cell),3,50 (active)
"SUPT3H (SPT3 homolog, SAGA and STAGA complex component)",Rucaparib,OCI-P5x (serous),1,57.1 (active)
"SUPT3H (SPT3 homolog, SAGA and STAGA complex component)",Rucaparib,OCI-P5x (serous),2,48 (active)
"SUPT3H (SPT3 homolog, SAGA and STAGA complex component)",Rucaparib,OCI-P5x (serous),3,60.8 (active)
"SUPT3H (SPT3 homolog, SAGA and STAGA complex component)",Vehicle,OCI-C5x (clear cell),1,56.8 (active)
"SUPT3H (SPT3 homolog, SAGA and STAGA complex component)",Vehicle,OCI-C5x (clear cell),2,50.3 (active)
"SUPT3H (SPT3 homolog, SAGA and STAGA complex component)",Vehicle,OCI-C5x (clear cell),3,41.9 (active)
"SUPT3H (SPT3 homolog, SAGA and STAGA complex component)",Vehicle,OCI-P5x (serous),1,40.1 (active)
"SUPT3H (SPT3 homolog, SAGA and STAGA complex component)",Vehicle,OCI-P5x (serous),2,66 (active)
"SUPT3H (SPT3 homolog, SAGA and STAGA complex component)",Vehicle,OCI-P5x (serous),3,65.5 (active)
